PubChem BioAssay AID1259254 – NCATS | 2017
Aim: 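Gene knock-downs that lead to re-replication, shown by excess G2 DNA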 (primary screen). Cell system: human HCT116 colorectal cancer cells. Knock-down reagent: single siRNA against human genes. Timing: 3 days. Read-out: 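Nuclei stained with Hoechst and imaged; cell-cycle phase assigned by DNA content; G2 share scaled per plate, non-targeting siRNA 0%, GMNN siRNA 100%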. Scale: G2 robust z-score and G2 cells, % of GMNN control: higher = more G2 cells, more excess DNA replication. Active means: 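Active siRNAs have a G2 robust z of 5 or more median absolute deviations over the median, which in these data means about 38% or higher of GMNN control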.
Here is one part, drawn at random, of about 59,000 reagents tested. About 1,550 of them (2.6%) were called active. 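G2 share is only a proxy for re-replication; each gene was hit by three separate siRNAs, and active genes were retested.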 Entries without a mark were called inactive. The numbers tell different reagents against one gene apart. Further read-outs or replicates are left out here. No sequences are given here. The record does not give: the amount of reagent.

Target gene | reagent | G2 robust z-score | G2 cells, % of GMNN control
APOL4 | 1 | -0.92 | -3.5
APOL4 | 2 | -0.0925 | 2.32
APOL4 | 3 | 0.967 | 9.77
ZNF570 | 1 | 0.844 | 8.9
ZNF570 | 2 | 0.31 | 5.15
ZNF570 | 3 | -0.681 | -1.82
HIGD1A | 1 | 1.12 | 10.9
HIGD1A | 2 | -0.499 | -0.545
HIGD1A | 3 | 0.586 | 7.09
ORMDL3 | 1 | -0.889 | -3.29
ORMDL3 | 2 | 2.62 | 21.4
ORMDL3 | 3 | -0.48 | -0.412
EFHC1 | 1 | -0.168 | 1.79
EFHC1 | 2 | -0.05 | 2.62
EFHC1 | 3 | 1.02 | 10.2
PLG | 1 | 0.31 | 5.15
PLG | 2 | -0.00882 | 2.91
PLG | 3 | -0.415 | 0.045
MT1E | 1 | 6.18 (active) | 46.4
MT1E | 2 | 0.659 | 7.6
MT1E | 3 | 4.2 | 32.5
FOXD1 | 1 | 1.06 | 10.4
FOXD1 | 2 | -0.757 | -2.36
FOXD1 | 3 | 6.38 (active) | 47.8
NTF4 | 1 | -0.84 | -2.94
NTF4 | 2 | -0.218 | 1.43
NTF4 | 3 | -0.715 | -2.06
SNRPD2 | 1 | 3.26 | 25.9
SNRPD2 | 2 | 2.09 | 17.7
SNRPD2 | 3 | 0.808 | 8.66
PRSS42P | 1 | -0.0248 | 2.79
PRSS42P | 2 | -1.18 | -5.33
PRSS42P | 3 | -0.263 | 1.11
GGCX | 1 | -0.832 | -2.88
GGCX | 2 | -0.297 | 0.875
GGCX | 3 | -0.233 | 1.33
NDUFA5 | 1 | -0.542 | -0.849
NDUFA5 | 2 | -0.804 | -2.69
NDUFA5 | 3 | -0.853 | -3.03
RPL12P2 | 1 | 0.679 | 7.75
RPL12P2 | 2 | 1.14 | 11
RPL12P2 | 3 | 1.11 | 10.8
MT3 | 1 | -0.0515 | 2.61
MT3 | 2 | 0.324 | 5.25
MT3 | 3 | 1.92 | 16.5

11 entries already listed, sorted by “G2 cells, % of GMNN control”, ascending:
Target gene | reagent | G2 robust z-score | G2 cells, % of GMNN control
ORMDL3 | 1 | -0.889 | -3.29
ZNF570 | 3 | -0.681 | -1.82
HIGD1A | 2 | -0.499 | -0.545
ORMDL3 | 3 | -0.48 | -0.412
EFHC1 | 1 | -0.168 | 1.79
EFHC1 | 2 | -0.05 | 2.62
ZNF570 | 2 | 0.31 | 5.15
HIGD1A | 3 | 0.586 | 7.09
ZNF570 | 1 | 0.844 | 8.9
HIGD1A | 1 | 1.12 | 10.9
ORMDL3 | 2 | 2.62 | 21.4

More reagents:
Target gene | reagent | G2 robust z-score | G2 cells, % of GMNN control
LAG3 | 1 | -0.294 | 0.898
LAG3 | 2 | 0.247 | 4.71
LAG3 | 3 | -0.775 | -2.49
TRMT10B | 1 | -0.33 | 0.647
TRMT10B | 2 | -0.841 | -2.95
TRMT10B | 3 | 0.52 | 6.63
C1RL-AS1 | 1 | -0.464 | -0.298
C1RL-AS1 | 2 | 3.98 | 30.9
C1RL-AS1 | 3 | -1.05 | -4.43
TEX19 | 1 | 1.25 | 11.8
TEX19 | 2 | -0.0465 | 2.64
TEX19 | 3 | 1.91 | 16.4
PLIN4 | 1 | -0.704 | -1.98
PLIN4 | 2 | -0.577 | -1.09
PLIN4 | 3 | -0.018 | 2.84
CXorf38 | 1 | -0.577 | -1.09
CXorf38 | 2 | -0.199 | 1.56
CXorf38 | 3 | 0.36 | 5.5
NCBP1 | 1 | 0.572 | 6.99
NCBP1 | 2 | -0.992 | -4.01
NCBP1 | 3 | 1.38 | 12.7
SPC25 | 1 | -0.518 | -0.678
SPC25 | 2 | 0.514 | 6.59
SPC25 | 3 | 0.718 | 8.02
DNAJB7 | 1 | 1.32 | 12.2
DNAJB7 | 2 | 0.422 | 5.94
DNAJB7 | 3 | -0.599 | -1.25
TRIM64C | 1 | -0.297 | 0.878
TRIM64C | 2 | -0.993 | -4.02
TRIM64C | 3 | 2.97 | 23.9
OR1C1 | 1 | 2.4 | 19.8
OR1C1 | 2 | 0.263 | 4.82
OR1C1 | 3 | -0.433 | -0.0801
HLA-DPB1 | 1 | -0.825 | -2.84
HLA-DPB1 | 2 | -0.479 | -0.4
HLA-DPB1 | 3 | 0.483 | 6.36
AFAP1 | 1 | -0.425 | -0.0231
AFAP1 | 2 | -0.23 | 1.35
AFAP1 | 3 | 0.302 | 5.09
PCSK2 | 1 | 0.943 | 9.6
PCSK2 | 2 | 1.31 | 12.2
PCSK2 | 3 | -1.04 | -4.32
